Experimental data published in patent CN116262786A.
Results are given in words; binding and its absence hold for the method and conditions named. Some binding calls cover weakened binding; strength is not graded here.

These binders were tested against 食蟹猴FOLR1 (食蟹猴 (cynomolgus monkey)) (assay: ELISA, coated FOLR1 of each species 1 μg/mL, VHH-hFc titrated from 2 μg/mL, goat anti-human IgG-HRP).

binding | Binder
binds | 4B10-hFC1 (Fc fusion, human, not shown: a dimerising Fc or GST; small tags and cut ends) QVQLVESGGGLVQAGGSLRLSCTASGFTFDDYAMGWFRQAPGKEREGVSCISWNGGSTFYADSVKGRFTIVRDNAKNTVYLEMNSLKPEDTAMYYCAALAYCSGGHWSPGDLSGGYWGQGTQVTVSS
binds | 4E11-hFC1 (Fc fusion, human, not shown: a dimerising Fc or GST; small tags and cut ends) QVQLVESGGGSVQAGGSLRLSCAVSGYTYSSNSMGWFRQAPGKEREGVAAIYTGGGSTYYADSVKGRFTISQDNAKNTVYLQMNSLKPEDTAMYYCAAGGPTWYDGSWSRGDEYTYWGQGTQVTVSS
binds | 3B3-hFC1 (Fc fusion, human, not shown: a dimerising Fc or GST; small tags and cut ends) QVQLVESGGGSVQAGGSLRLSCAASGYTYRRLSMGWFRQAPGKEREAVGGIYTGESMTYYADSVRGRFTISQDNAQNTVYLQMNSLKPEDTATYYCAATPQFLIGSGLLRPDKYDSWGQGTQVTVSS
binds | 2E5-hFC1 (Fc fusion, human, not shown: a dimerising Fc or GST; small tags and cut ends) QVQLVESGGGSVQAGGSLRLSCAASGYPYHRVSMGWFRQAPGKEREGVAGIYTGGLYTGGSMTYYADSVKGRFTISQDNARNTVYLQMNSLKPEDTAMYYCAATPQFLIGSGLLRPDKYNSWGQGTQVTVSS
binds | 1D11-hFC1 (Fc fusion, human, not shown: a dimerising Fc or GST; small tags and cut ends) QVQLVESGGGSVQAGGSLRLSCAASGDTYSSACMDWFRQAPGKEREGVAGISSGGSTYYADSVKGRFTISRDNAKNTLYLQMNSLKPEDTAMYYCAARRVGRIPCRTMLPGLQDYWGQGTQVTVSS
binds | 2D8-hFC1 (Fc fusion, human, not shown: a dimerising Fc or GST; small tags and cut ends) QVQLVESGGGSVQAGGSLRLSCAASDYTYRRYCMGWFRQAPGKEREKVAAIYLGDGTTYYTDSVKGRFTISQENAKNTIYLQMNNLKPEDTAMYYCAADRSGCSVTWSYSAFEDWGQGTQVTVSS
